Experimental data taken from patent US5648211.
For some of these results: Where a protein sequence is shown, tags need not be part of it. For some of these results: The exact form of at least one protein or probe is not confirmed.

Key:
Test in all cases: enzyme reaction in vitro
BsmAI = biological target: T1, BsmAI (UniProt Q6UQ64); details: unmodified strand nicked, label: 32P 5' end
T1 sequence (looked up, limits assumed): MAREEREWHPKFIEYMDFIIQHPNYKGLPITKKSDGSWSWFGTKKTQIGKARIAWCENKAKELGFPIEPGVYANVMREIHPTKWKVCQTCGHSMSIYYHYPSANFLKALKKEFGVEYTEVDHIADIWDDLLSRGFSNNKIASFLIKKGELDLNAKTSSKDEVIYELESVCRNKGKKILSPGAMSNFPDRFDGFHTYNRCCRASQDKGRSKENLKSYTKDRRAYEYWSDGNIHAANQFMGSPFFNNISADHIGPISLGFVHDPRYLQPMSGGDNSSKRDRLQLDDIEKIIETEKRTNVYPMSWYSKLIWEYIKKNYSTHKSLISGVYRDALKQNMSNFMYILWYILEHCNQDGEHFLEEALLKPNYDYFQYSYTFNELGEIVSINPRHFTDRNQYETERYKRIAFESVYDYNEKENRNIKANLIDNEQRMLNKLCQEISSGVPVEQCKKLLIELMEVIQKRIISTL

BsoBI (Bacillus sp.) = biological target: T2, BsoBI (Bacillus sp.) (UniProt P70985); details: protein details: New England BioLabs
T2 sequence (looked up, limits assumed): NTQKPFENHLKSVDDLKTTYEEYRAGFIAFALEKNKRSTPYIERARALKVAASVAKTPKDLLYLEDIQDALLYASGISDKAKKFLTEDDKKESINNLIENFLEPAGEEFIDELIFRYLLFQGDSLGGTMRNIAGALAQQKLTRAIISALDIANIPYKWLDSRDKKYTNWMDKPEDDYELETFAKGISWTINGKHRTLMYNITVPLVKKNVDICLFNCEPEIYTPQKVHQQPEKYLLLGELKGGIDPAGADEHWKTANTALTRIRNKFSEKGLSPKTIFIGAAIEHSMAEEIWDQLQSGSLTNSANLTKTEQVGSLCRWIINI

MwoI = biological target: T3, MwoI (UniProt O59646); details: PS at G and T (one strand, hemimodified); unmodified strand nicked; no product in linear SDA; label: 32P 5' end
T3 sequence (looked up, limits assumed): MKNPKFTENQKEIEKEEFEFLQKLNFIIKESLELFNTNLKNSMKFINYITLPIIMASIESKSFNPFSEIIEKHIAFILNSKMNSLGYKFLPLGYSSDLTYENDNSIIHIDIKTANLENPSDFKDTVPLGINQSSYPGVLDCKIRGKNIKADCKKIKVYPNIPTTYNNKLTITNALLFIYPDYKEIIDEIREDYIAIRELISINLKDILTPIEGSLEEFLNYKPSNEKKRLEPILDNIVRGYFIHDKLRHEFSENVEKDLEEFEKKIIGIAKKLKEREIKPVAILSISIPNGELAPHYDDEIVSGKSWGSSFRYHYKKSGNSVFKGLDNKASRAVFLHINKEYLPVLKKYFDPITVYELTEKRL

BstNI = details: PS at A and C (one strand, hemimodified); unmodified strand nicked; label: 32P 5' end
BstOI = details: PS at A and C (one strand, hemimodified); unmodified strand nicked; label: 32P 5' end
BsrI = details: PS at A (one strand, hemimodified); unmodified strand nicked; label: 32P 5' end
BsmI = biological target: T4, BsmI (UniProt Q8RLN4); details: label: 32P 5' end
T4 sequence (looked up, limits assumed): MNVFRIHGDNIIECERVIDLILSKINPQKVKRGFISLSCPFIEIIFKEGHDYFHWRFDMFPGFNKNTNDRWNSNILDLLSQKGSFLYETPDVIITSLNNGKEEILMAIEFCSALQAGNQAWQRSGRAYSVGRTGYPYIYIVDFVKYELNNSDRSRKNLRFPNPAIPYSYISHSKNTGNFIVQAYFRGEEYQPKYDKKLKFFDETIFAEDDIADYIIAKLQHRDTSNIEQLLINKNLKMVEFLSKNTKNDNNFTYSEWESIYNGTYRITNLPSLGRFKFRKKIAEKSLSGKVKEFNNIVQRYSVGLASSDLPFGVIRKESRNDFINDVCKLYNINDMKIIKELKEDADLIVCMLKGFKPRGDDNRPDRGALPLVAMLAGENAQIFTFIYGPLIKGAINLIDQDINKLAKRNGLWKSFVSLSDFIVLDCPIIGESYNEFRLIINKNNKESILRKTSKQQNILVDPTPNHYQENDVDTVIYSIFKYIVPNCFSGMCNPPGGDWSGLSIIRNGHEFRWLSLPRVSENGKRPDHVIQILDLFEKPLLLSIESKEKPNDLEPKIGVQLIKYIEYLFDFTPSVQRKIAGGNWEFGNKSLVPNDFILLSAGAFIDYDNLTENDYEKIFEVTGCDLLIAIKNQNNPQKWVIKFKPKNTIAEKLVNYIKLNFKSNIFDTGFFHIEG

BsrDI = details: PS at T (one strand, hemimodified); unmodified strand nicked; label: 32P 5' end
AccI = details: PS at C (one strand, hemimodified); site 17-22; unmodified strand nicked; poor stability at 50-65 C; label: 32P 5' end
BslI = details: PS at C (one strand, hemimodified); site 7-17; unmodified strand nicked; label: 32P 5' end
BstXI = details: PS at T (one strand, hemimodified); unmodified strand nicked; label: 32P 5' end
[1] = PS at C (one strand, hemimodified), unmodified strand nicked, label: 32P 5' end

Sequence: CCGGAATTCGAATGCCAAAAGACTGGGTCTCCAGGAACCAACTCGGCCGGATCCGC (double strand) [TP-1 duplex, dGTPalphaS + TTPalphaS]
- activity on this sequence (BsmAI; PS at G and T (one strand, hemimodified)): active

Sequence: GGATTCGCCTCCAGATCTGGTCCTCGGGTAGACCCGGAGCTGAATGAAGC / CCGGAGCTGAATGAAGCCATACCAAACGACGAGCGTGACACCACGATGCCTGCAGCAATGGCAACAACGT [BsoBI SDA target with primer XBsoB1-2 (filled in to 103 bp)]
- activity on this sequence (BsoBI (Bacillus sp.); PS at C in extended regions, 81-mer product detectable in about 6 min, 60 C, faster at 6 than 15 mM MgCl2, pH 8.3, label: 32P internal, only the site is given): active

Sequence: GGAATTCCCGAGGAAGGTAGACGCAATGGCGGCACTCGGCCGGATCCGG (double strand) [TP-4 duplex, dGTPalphaS + TTPalphaS]
- activity on this sequence (MwoI): active

Sequence: CCGGAATTCTGGTTCCTGGAGACCCAGTCTTTTGGCATTCACTCGGCCGGATCCGC (double strand) [TP-1C duplex, dATPalphaS + dCTPalphaS]
- activity on this sequence (BstNI): active
- activity on this sequence (BstOI): active

Sequence: GGAATTCGCAGCCATTGCGTCTACCAACCTCGGGACTCGGCCGGATCCGG (double strand) [TP-4C duplex, dCTPalphaS]
- activity on this sequence (BsoBI (Bacillus sp.); [1]): active

Sequence: GGAATTCCGTCCCAGTGATGAAGATCGCAGCGCCCGAGACTCGGCCGGATCCGC (double strand) [TP-3 duplex, dATPalphaS]
- activity on this sequence (BsrI): active

Sequence: GAGAATTCGTGGACTGCAGATGTCTCCAATCCCCCCTCACAACGTTCCAGTAACC (double strand) [SSP-BSMA duplex, dGTPalphaS]
- activity on this sequence (BsmAI; PS at G (one strand, hemimodified)): active

Sequence: CCGGAATTCTGGTTCCTGGAGACCCAGTCTTTTGGCATTCACTCGGCCGGATCCGC (double strand) [TP-1C duplex, dATPalphaS]
- activity on this sequence (BsmI; PS at A (one strand, hemimodified), modified strand protected, unmodified nicked): active

Sequence: TACAATAGTCCCAATCTACTCGGGCTTACACGGAGGCATCAAGTG (double strand) [CDAva2S1 duplex, dCTPalphaS]
- activity on this sequence (BsoBI (Bacillus sp.); [1]): active

Sequence: GGAATTCGCAGCCATTGCGTCTACCAACCTCGGGACTCGGCCGGATCCGG (double strand) [TP-4C duplex, TTPalphaS]
- activity on this sequence (BsrDI): active

Sequence: TACAATAGTCCCAATCTACCCGAGCTTACACGGAGGCATCAAGTG (double strand) [CDAva1S1 duplex, TTPalphaS]
- activity on this sequence (BsoBI (Bacillus sp.); PS at T (one strand, hemimodified), unmodified strand nicked, label: 32P 5' end): active

Sequence: CCGGAATTCGAATGCCAAAAGACTGGGTCTCCAGGAACCAACTCGGCCGGATCCGC (double strand) [TP-1 duplex, dCTPalphaS]
- activity on this sequence (BsmI; PS at C (one strand, hemimodified), modified strand nicked, unmodified strand protected): active

Sequence: GGAATTCCCGAGGAAGGTAGACGCAATGGCGGCACTCGGCCGGATCCGG (double strand) [TP-4 duplex, dCTPalphaS]
- activity on this sequence (AccI): active
- activity on this sequence (BslI): active

Sequence: CCGGAATTCGAATGCCAAAAGACTGGGTCTCCAGGAACCAACTCGGCCGGATCCGC (double strand) [TP-1 duplex, TTPalphaS]
- activity on this sequence (BstXI): active
